Experimental data taken from patent publication US20250303156A1, “CONCOMITANT TREATMENT OF TTFIELDS AND HMG-CO A REDUCTASE INHIBITORS” (NOVOCURE GMBH, priority 2024, published 2025).
At least one structure is not confirmed: it was looked up by name or label, or the drawing left a doubt.

Test system: non small cell lung cancer (NSCLC)
Assay: clinical study in non small cell lung cancer: survival with statins in addition to TTFields
Assay type: in vivo, human
Settings: statin plus Docetaxel plus TTFields compared to the same statin plus Docetaxel; FIGS. 5-7
From the text: In some aspects, the materials and methods described in Leal et al. “Tumor Treating Fields therapy with standard systemic therapy versus standard systemic therapy alone in metastatic non-small-cell lung cancer following progression on or after platinum-based therapy (LUNAR): a randomised, open-label, pivotal phase 3 study” Lancet Oncol. 2023 September; 24(9):1002-1017 can be used, such methods and materials are hereby incorporated by reference in its entirety herein. The disclosed experiments were based on a clinical trial in which subjects received Docetaxel or a combination of Docetaxel and TTFields. The patients also received statins during the clinical trial. The statins were not part of the clinical trial, however, the patients were previously on statins due to the chronic condition and continued to receive statins.

CCC(C)(C)C(=O)O[C@H]1C[C@@H](C)C=C2C=C[C@H](C)[C@H](CC[C@@H]3C[C@@H](O)CC(=O)O3)[C@H]21 [Simvastatin, simvastatin]
median survival of patients: increase in median survival
